## Microarray screen: hit calls

Data from the ROBIN nucleic acid binder screens, doi:10.1002/anie.202211358.

Oligonucleotides screened, 5′ to 3′:
T1: PreQ1 riboswitch RNA pseudoknot, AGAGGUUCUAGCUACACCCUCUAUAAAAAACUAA. From B. subtilis. Hit rate about 0.7% of about 24,000 compounds.
T2: SAM-II riboswitch RNA pseudoknot, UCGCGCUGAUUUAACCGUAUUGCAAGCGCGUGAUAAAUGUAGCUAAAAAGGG. Hit rate about 1% of about 21,000 compounds.
T3: TPP riboswitch RNA three-way junction, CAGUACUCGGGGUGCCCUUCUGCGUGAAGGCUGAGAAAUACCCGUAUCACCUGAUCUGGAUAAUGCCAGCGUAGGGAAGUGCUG. Hit rate about 0.7% of about 24,000 compounds.

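Each compound is printed as two spots on a slide made to bind it covalently, so it has no test concentration; the read-out is fluorescence of the bound, labelled oligonucleotide. For the PreQ1, TPP and SAM-II riboswitches the laboratory earlier reported (doi:10.1038/s41467-019-09493-3) 1 µM RNA, 2 h, and a rule that included a mean Z-score above 3 (spot signal-to-noise against the whole library), a score well above that on a control array, and duplicate spots agreeing (coefficient of variation under 100). The data file gives only the calls; its cut-offs may differ, and compounds hitting several targets are kept. A missing hit is not proof of no binding, and a hit is not a measured affinity.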 A compound is marked 1 if it was called a hit and 0 if it was screened but was not. The compounds are a random part of those screened. A target missing from an entry has no call listed here. A dash means that no call is listed here.

structure | T1 | T2 | T3
COc1cccc(CNc2nc(-c3ccc(OC)c(OC)c3)no2)c1 | 0 | - | 0
Cc1ccc(NC(=O)CN2CCN(CCO)CC2)cc1Br | 0 | 0 | 0
CCOC(=O)N1CCc2cc(OC)c(OC)c3c2c1cc1cc(OC)c(OC)cc13 | 0 | 0 | 0
CCS(=O)(=O)CCNC(=O)[C@@]12CNC[C@@H]1CN(C)C2 | 0 | 0 | 0
Cn1cc(C=Cc2nc(N)nc(-c3ccccc3O)n2)c2ccccc21 | 0 | 0 | 0
CCOC(=O)N1CCN(CC(O)COc2ccc(C(C)(C)C)cc2)CC1.Cl (stereo not given) | 0 | 0 | 0
COc1ccc(CCCC(=O)N2CCC(CN)C2)cc1 (stereo not given) | 0 | 0 | 0
Cc1nn(CCO)cc1-c1c(-c2ccccc2)ncn1[C@@H](C)C(=O)O | 0 | 0 | 0
Cc1cc(N)n(CC(=O)NCc2cnn(-c3cccc(F)c3)c2)n1 | 0 | 0 | 0
N#Cc1cnn2c(NC3CCCCCCC3)c(-c3ccc(Cl)cc3)[nH]c12 | 0 | - | 0
N#Cc1nc(C=Cc2cccs2)oc1NCCN1CCOCC1 | 0 | - | 0
Cc1cc(C)c2oc(-c3cc(N)ccc3Cl)nc2c1 | 0 | 0 | 0
Cc1cc(OCc2nc(-c3nonc3N)no2)ccc1Cl | 0 | 0 | 0
Nc1ccc(Cl)c(-c2nc3ncccc3o2)c1 | 0 | 0 | 0
CNCCN1C(=O)CC[C@H]2CN(C(=O)Cn3cc(Cl)cn3)CC[C@H]21 | 0 | 0 | 0
Nc1cc(C(=O)N2CCOCC(O)(CN3CCCC3)C2)ccn1 (stereo not given) | 0 | 0 | 0
O=S1(=O)N=C(Nc2ccccc2Cl)c2ccccc21 | 0 | 0 | 0
Cc1cc2c(c(=O)o1)C(c1ccccc1)C(C#N)=C(N)O2 (stereo not given) | 0 | 0 | 0
Cc1ccc(CNc2ccc3c(c2)ncn3C(C)(C)C)cc1 | 0 | 0 | 0
CC(O)C#Cc1ccccn1 (stereo not given) | 0 | 0 | 0
Nc1nonc1-c1nc2ccccc2n1Cc1ccc(Cl)cc1 | 0 | 0 | 0
Cc1ccc(OCC(O)Cn2c(C)nc3ccccc32)cc1 (stereo not given) | 0 | - | 0
CN(C)c1nc2c(c(NCc3cc(-c4ccccc4)n[nH]3)n1)CCNC2 | 0 | 0 | 0
Cc1ccc(C(=O)NCC2CCN(Cc3cnc(N)nc3)C2)c(C)c1 (stereo not given) | 0 | 0 | 0
COc1ccc(N2C(N)=C(C#N)C(c3ccc(C(F)(F)F)cc3)C3=C2CCS3(=O)=O)cc1 (stereo not given) | 0 | 0 | 0
COc1cc(N2CC(Oc3ccccc3OC)C2)nc(N)n1 | 0 | 0 | 0
CCN([C@H]1COC[C@@H]1O)S(=O)(=O)c1cccc(C(=O)NC2CC2)c1 | 0 | 0 | 0
CCN1C[C@]2(OC(=O)c3ccccc3NC(C)=O)CC[C@H](OC)[C@@]34[C@H]5C[C@@H]6[C@@H](OC)C[C@](O)([C@@H](C[C@@H]23)[C@@H]14)[C@@]5(O)[C@@H]6OC | 0 | 0 | 0
Cc1cc(C(=O)N2CCc3c(ncnc3N(C)C)C2)cc2sc(N)nc12 | 0 | 0 | 0
O=C(Nc1ccc(OCc2cccs2)cc1)N1CCOCC(CO)C1 (stereo not given) | 0 | 0 | 0
CN(C)CCNc1c(N)c(=O)oc2ccccc12 | 0 | 0 | 0
COc1ccc(NC2c3ccccc3C(=O)N2Cc2ccccc2Cl)c(OC)c1 (stereo not given) | 0 | 0 | 0
CC(Cc1cccc(C(F)(F)F)c1)NC(C)C12CC3CC(CC(c4ccc(Cl)cc4)(C3)C1)C2 (stereo not given) | 0 | 0 | 0
Cc1c(C(=O)Nc2cccc(C(F)(F)F)c2)cc(-c2ccccc2)n1CCCN1CCOCC1 | 0 | 0 | 0
COCCCNc1nc2c(c(=O)n(C)c(=O)n2C)n1Cc1cccc(Cl)c1 | 0 | 0 | 0
Cc1ccc(-c2nc(S(=O)(=O)c3ccccc3)c(NCCCN(C)C)o2)cc1 | 0 | - | 0
NS(=O)(=O)OC[C@@H]1C[C@@H](n2ccc3c(N[C@H]4CCc5ccccc54)ncnc32)C[C@H]1O | 0 | 0 | 0
Cc1nc(C(C)NS(=O)(=O)c2sc3c(c2C(=O)O)CCNC3)n[nH]1 (stereo not given) | 0 | 0 | 0
Cc1nn(C)cc1C(=O)N1CC[C@H](N2CCN(C)CC2)[C@H](CCCO)C1 | 0 | 0 | 0
CC(C)Oc1cc(N2CCCC(O)C2)nc(N)n1 (stereo not given) | 0 | 0 | 0
CO[C@H]1C[C@@H](O)C12CCN(CC(=O)NCCc1ccc(F)cc1)CC2 | 0 | 0 | 0
COc1ccc2c(c1)C(C(=O)NCCNc1cccnc1)CC(=O)N2 (stereo not given) | 0 | 0 | 0
C=CCN1C(=O)NOC(N)=C1C#N | 0 | 0 | 0
COc1ccccc1-n1nnc(-c2nc(-c3ccccc3C)no2)c1N | 0 | - | 0
Cc1ccc(Nc2nc(C)cc(C)n2)c(C(=O)O)c1 | 0 | 0 | 0
CN(C)c1ccc(Nc2nc(N)n(C(=O)c3c(F)cccc3F)n2)cc1 | 0 | 0 | 0
Cc1cc(N(CCO)CCO)n2nc(-c3ccc(C(C)(C)C)cc3)nc2n1 | 0 | - | 0
Nc1nc(NCCO)cc(-c2ccc(F)c(CO)c2)n1 | 0 | 0 | 0
COc1ccc(CNCc2cc(OC)c(OC)c(OC)c2)cc1 | 0 | 0 | 0
CC(=O)Nc1sc2c(c1C(c1ccccc1Cl)N1CCN(CCO)CC1)CCCC2 (stereo not given) | 0 | 0 | 0
C=CCOc1c(Cl)cc(C2C(C#N)=C(N)Oc3cc4c(cc32)OCO4)cc1OC (stereo not given) | 0 | 0 | 0
CS(=O)(=O)CCC(=O)N1C[C@H](CO)C[C@H](CN2CCOCC2)C1 | 0 | 0 | 0
O=C(NCCCCc1ccccc1)c1nn(-c2ccc(Cl)cc2)nc1CO | 0 | - | 0
CCOC(=O)c1ccc(NS(=O)(=O)c2ccc(Cl)c(N)c2)cc1 | 0 | 0 | 0
Cc1nnc2c(Nc3ccc(Cl)c(C(=O)O)c3)nc3ccccc3n12 | 0 | - | 0
CCN1CCN(Cc2ccc(NC3=NS(=O)(=O)C(c4ccc(C)cc4)=C3C)cc2)CC1 | 0 | - | 0
Cc1ccc(Nc2cc(N3CCN(S(=O)(=O)c4ccc(C)cc4)CC3)nc(C)n2)cc1 | 0 | - | 0
Cc1sc2nc(SCc3n[nH]c(=S)n3-c3ccccc3)nc(N)c2c1C | 0 | 0 | 0
COc1ccc(-c2ccc3c(N)c(C(=O)c4ccc(OC)c(OC)c4)sc3n2)cc1 | 0 | 0 | 0
Cc1cc2c(c(=O)o1)C(c1cc(Br)ccc1F)C(C#N)=C(N)O2 (stereo not given) | 0 | 0 | 0
COC(Cn1cnc(-c2ccccc2)c1-c1ccc(CO)o1)c1cccs1 (stereo not given) | 0 | 0 | 0
Cc1cc2oc(=O)cc(CNCc3csc(-c4cnccn4)n3)c2cc1C | 0 | 0 | 0
Nc1ccc(C=Cc2nc3ccccc3o2)cc1 | 0 | 1 | 0
CCOC(=O)C1=C(N)OC2=C(C(=O)CCC2)C1c1cccs1 (stereo not given) | 0 | 0 | 0
Cc1cc(NCC2CCCO2)n2nc(-c3ccc(Cl)cc3)c(C)c2n1 (stereo not given) | 0 | - | 0
CCC[C@H]1CN(C(=O)c2c[nH]c3c(F)cccc3c2=O)C[C@@H]1N | 0 | 0 | 0
N#CC1=C(N)Oc2ccc3ccc(O)cc3c2C1c1cccnc1 (stereo not given) | 0 | 0 | 0
O=C(OCCNC1=NS(=O)(=O)c2ccccc21)c1cccs1 | 0 | 0 | 0
Cc1ccc(Cn2c(CCCO)nc3ccccc32)cc1 | 0 | 0 | 0
CC1(C)OC2CC3C4CC(F)C5=CC(=O)C=CC5(C)C4C(O)CC3(C)[C@]2(C(=O)CO)O1 (stereo not given in full) | 0 | 0 | 0
CCCn1c(C(O)CC)nc2ccccc21 (stereo not given) | 0 | - | 0
COc1ccc(NC(=O)c2sc(N)c(C(=O)OC(C)C)c2C)cc1 | 0 | 0 | 0
CCn1c(N)nc2cc(C(=O)NCc3cnc(-c4ccccc4)s3)cnc21 | 0 | 0 | 0
NC(=O)/C(=C\c1ccncc1)c1cccc2ccccc12 | 0 | 0 | 0
O=C(CCN1CCN(C(=O)OCc2cc(Cl)cc(Cl)c2)CC1)c1ccc2[nH]c(=O)oc2c1 | 0 | 0 | 0

Some entries from above, unchanged:

{"structure": "Cc1cc2c(c(=O)o1)C(c1ccccc1)C(C#N)=C(N)O2", "stereo": "stereo not given", "T1": "0", "T2": "0", "T3": "0"}
{"structure": "CS(=O)(=O)CCC(=O)N1C[C@H](CO)C[C@H](CN2CCOCC2)C1", "T1": "0", "T2": "0", "T3": "0"}
{"structure": "Nc1ccc(Cl)c(-c2nc3ncccc3o2)c1", "T1": "0", "T2": "0", "T3": "0"}
{"structure": "Cc1nc(C(C)NS(=O)(=O)c2sc3c(c2C(=O)O)CCNC3)n[nH]1", "stereo": "stereo not given", "T1": "0", "T2": "0", "T3": "0"}
{"structure": "COc1ccc(NC(=O)c2sc(N)c(C(=O)OC(C)C)c2C)cc1", "T1": "0", "T2": "0", "T3": "0"}
{"structure": "Nc1ccc(C=Cc2nc3ccccc3o2)cc1", "T1": "0", "T2": "1", "T3": "0"}
{"structure": "Cc1cc(N)n(CC(=O)NCc2cnn(-c3cccc(F)c3)c2)n1", "T1": "0", "T2": "0", "T3": "0"}
{"structure": "C=CCN1C(=O)NOC(N)=C1C#N", "T1": "0", "T2": "0", "T3": "0"}